Results as given in the supplement of paper PMC10849652.
The list shows a part of the results.

Chains of the proteins cited; added tags and fusions are not shown. Lines headed by an entry give the natural chain unless they say otherwise; changes in a name come on top.
UniProt O60234, whole entry, looked up: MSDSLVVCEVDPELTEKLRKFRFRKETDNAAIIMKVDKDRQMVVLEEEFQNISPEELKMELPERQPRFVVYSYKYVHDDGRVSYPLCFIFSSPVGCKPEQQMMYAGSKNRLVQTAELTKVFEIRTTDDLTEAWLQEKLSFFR
UniProt P13224: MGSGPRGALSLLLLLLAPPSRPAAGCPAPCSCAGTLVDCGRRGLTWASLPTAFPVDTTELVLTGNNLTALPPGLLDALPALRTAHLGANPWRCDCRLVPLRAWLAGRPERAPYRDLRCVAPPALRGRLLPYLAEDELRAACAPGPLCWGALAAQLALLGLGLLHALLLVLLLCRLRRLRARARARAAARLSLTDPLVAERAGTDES
UniProt P60983, whole entry, looked up: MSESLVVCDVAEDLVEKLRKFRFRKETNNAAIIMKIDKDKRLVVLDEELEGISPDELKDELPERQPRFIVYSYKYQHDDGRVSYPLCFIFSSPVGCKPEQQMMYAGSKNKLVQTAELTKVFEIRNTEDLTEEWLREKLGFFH
UniProt Q9Y692: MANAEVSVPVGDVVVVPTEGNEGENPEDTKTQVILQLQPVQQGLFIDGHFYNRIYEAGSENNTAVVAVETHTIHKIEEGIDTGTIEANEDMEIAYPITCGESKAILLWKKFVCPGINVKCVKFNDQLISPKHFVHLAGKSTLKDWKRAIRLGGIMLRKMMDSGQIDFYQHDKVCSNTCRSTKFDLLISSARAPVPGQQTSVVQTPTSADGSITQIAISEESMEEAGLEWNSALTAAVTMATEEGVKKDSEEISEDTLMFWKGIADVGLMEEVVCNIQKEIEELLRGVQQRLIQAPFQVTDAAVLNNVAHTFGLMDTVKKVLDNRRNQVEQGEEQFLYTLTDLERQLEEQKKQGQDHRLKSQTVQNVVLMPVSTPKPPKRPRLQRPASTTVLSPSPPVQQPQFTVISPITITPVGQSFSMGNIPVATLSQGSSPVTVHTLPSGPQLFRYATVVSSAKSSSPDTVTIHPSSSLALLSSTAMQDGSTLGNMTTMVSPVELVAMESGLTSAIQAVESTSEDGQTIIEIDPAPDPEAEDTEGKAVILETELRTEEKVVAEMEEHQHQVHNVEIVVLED
UniProt Q8IVV7: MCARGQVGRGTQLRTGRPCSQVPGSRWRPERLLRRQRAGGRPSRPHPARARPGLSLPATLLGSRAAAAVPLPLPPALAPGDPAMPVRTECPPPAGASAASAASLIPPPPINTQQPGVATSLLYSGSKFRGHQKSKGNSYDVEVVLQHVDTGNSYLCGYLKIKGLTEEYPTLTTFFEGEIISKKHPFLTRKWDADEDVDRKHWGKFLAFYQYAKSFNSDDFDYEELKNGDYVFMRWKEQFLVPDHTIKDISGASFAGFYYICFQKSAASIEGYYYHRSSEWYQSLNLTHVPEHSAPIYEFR
UniProt Q9NVN8: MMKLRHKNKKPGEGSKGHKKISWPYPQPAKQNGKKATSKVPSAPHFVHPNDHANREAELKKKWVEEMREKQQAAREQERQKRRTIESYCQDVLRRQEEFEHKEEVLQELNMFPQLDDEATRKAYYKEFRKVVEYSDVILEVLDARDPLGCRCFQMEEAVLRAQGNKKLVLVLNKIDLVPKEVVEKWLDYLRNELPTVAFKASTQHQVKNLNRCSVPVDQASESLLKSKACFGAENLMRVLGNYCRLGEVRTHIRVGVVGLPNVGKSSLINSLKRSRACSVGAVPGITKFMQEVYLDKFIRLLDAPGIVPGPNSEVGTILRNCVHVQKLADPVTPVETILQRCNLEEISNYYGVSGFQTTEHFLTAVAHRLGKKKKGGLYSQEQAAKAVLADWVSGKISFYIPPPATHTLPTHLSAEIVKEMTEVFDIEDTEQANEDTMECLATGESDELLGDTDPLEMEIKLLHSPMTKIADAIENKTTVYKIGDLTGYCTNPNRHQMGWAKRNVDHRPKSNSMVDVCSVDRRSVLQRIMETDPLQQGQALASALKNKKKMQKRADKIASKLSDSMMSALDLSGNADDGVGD
UniProt P06280: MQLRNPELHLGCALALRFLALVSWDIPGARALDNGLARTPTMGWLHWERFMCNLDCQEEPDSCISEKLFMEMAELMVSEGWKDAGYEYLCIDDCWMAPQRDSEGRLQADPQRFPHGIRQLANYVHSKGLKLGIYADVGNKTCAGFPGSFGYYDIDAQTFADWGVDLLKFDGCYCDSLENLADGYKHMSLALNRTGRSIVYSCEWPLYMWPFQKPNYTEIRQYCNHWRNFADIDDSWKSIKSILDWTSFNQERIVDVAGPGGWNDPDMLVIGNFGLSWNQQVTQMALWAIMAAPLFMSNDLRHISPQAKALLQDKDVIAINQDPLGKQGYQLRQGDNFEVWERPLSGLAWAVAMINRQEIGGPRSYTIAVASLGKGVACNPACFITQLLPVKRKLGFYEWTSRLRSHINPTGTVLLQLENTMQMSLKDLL
UniProt O15228: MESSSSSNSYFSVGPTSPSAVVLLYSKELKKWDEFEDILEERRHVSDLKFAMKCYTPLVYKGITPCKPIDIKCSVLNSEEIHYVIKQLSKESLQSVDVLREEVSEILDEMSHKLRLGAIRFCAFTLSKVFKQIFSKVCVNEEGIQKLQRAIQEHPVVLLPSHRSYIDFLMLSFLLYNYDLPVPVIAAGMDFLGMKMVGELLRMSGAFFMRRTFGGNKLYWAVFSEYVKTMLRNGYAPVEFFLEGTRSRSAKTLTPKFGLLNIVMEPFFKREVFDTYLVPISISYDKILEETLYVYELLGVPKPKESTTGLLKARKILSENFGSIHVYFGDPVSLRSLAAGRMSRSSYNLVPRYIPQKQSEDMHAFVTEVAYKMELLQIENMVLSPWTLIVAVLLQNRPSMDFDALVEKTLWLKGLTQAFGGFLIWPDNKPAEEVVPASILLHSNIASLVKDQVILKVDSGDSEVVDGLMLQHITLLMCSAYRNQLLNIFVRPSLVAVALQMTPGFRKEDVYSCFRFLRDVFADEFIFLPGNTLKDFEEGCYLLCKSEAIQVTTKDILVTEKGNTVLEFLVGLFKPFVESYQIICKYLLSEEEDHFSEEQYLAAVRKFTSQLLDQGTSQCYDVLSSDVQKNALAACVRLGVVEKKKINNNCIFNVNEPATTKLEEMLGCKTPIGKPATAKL
UniProt Q92990: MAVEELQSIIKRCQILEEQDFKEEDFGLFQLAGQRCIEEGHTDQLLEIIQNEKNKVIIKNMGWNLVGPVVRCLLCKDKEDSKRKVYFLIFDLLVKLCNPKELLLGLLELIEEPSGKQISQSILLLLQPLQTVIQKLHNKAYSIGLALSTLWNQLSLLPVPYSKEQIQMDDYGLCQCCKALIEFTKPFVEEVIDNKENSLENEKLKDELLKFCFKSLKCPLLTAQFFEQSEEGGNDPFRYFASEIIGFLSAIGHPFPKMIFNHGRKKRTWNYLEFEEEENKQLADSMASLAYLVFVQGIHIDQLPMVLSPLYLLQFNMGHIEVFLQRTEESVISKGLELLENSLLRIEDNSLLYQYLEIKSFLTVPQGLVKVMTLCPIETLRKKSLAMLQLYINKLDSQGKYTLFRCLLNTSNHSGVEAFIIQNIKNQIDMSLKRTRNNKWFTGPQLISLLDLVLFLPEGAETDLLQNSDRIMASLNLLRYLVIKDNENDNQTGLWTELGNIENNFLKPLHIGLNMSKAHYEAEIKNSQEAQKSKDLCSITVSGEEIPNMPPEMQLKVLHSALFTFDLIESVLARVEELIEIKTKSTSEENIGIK
UniProt Q9UJJ9: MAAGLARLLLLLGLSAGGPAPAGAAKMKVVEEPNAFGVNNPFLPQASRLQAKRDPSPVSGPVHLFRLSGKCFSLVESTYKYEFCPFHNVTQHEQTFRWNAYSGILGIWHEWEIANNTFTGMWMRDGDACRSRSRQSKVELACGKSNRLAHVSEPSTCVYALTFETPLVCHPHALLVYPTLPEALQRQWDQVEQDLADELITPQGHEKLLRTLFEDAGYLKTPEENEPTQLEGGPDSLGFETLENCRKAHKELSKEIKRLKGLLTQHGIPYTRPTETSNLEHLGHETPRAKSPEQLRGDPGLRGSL
UniProt Q9Y5P6: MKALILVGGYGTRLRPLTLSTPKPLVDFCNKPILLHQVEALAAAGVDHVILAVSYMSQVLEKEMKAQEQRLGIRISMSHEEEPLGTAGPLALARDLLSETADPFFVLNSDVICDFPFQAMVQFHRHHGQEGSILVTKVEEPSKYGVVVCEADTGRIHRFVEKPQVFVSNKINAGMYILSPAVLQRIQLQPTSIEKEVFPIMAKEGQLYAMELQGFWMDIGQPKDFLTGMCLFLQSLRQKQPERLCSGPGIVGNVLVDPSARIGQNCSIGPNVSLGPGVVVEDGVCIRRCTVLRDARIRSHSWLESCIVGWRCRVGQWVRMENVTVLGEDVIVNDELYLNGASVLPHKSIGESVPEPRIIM
UniProt A6NDN3: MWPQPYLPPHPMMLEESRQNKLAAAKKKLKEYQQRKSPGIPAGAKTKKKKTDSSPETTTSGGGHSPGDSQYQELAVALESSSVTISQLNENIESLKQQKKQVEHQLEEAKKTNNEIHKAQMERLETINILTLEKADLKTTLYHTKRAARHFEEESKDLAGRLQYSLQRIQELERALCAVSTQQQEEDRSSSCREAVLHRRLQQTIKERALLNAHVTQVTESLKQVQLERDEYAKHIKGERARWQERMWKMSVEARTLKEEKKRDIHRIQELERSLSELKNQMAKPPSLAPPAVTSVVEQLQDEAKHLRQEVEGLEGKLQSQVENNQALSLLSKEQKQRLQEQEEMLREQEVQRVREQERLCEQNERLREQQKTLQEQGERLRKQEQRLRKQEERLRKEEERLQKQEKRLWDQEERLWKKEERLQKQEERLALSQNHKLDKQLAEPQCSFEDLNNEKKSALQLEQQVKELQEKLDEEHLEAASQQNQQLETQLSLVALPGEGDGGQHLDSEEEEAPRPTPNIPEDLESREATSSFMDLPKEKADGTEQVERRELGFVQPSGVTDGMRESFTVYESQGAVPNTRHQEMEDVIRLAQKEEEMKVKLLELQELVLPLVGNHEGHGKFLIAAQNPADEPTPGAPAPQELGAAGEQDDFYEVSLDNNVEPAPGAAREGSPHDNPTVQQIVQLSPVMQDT
UniProt Q7Z2K8: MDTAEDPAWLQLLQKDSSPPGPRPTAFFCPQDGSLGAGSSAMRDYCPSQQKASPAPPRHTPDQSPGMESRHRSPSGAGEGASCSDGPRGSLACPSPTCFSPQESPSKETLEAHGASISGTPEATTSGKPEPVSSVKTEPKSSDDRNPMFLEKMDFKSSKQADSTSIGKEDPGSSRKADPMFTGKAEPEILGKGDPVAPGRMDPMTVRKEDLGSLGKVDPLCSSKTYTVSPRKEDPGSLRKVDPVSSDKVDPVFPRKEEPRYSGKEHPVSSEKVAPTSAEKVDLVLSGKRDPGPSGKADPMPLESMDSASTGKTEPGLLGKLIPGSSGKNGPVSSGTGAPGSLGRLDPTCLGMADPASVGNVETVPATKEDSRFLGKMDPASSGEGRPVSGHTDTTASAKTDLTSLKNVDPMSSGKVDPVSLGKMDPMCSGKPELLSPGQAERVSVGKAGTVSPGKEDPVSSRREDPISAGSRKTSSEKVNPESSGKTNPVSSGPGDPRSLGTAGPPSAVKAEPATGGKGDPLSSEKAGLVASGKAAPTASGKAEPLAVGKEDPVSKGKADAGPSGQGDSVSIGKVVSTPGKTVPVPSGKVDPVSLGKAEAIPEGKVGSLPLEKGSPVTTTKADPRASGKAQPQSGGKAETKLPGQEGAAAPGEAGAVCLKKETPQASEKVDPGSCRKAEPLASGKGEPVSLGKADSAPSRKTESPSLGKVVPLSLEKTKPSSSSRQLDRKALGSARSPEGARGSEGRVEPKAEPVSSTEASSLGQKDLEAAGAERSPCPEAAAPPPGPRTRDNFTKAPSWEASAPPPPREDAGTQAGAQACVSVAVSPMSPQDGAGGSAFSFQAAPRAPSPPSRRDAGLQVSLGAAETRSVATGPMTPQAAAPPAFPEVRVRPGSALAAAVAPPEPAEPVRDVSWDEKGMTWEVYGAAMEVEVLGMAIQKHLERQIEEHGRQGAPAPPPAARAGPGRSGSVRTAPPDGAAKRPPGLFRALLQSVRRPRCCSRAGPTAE
UniProt Q9H4A5: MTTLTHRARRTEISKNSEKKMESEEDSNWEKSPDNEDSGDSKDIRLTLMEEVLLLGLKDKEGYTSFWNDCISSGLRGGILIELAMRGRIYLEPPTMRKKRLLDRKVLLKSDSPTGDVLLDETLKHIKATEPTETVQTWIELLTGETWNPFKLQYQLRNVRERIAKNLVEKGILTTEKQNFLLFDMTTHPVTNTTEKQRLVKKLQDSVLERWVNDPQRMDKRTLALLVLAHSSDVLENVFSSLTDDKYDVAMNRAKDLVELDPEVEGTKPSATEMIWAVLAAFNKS

What was measured:
Assay in all cases: log2 fold change, soluble protein after heating vs DMSO (PISA); higher = thermal stabilisation; K562 lysate, 10 uM; active = over 0.2 and 3.5 SD of the protein, either way, in both replicates (recomputed)
erlotinib = compound: C#Cc1cccc(Nc2ncnc3cc(OCCOC)c(OCCOC)cc23)c1 [erlotinib]
Outline: (§1)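 K562 pellets were dounce-homogenised in PBS pH 7.4 containing 1 mM MgCl2, and the crude extract, at 1 mg/mL protein, was exposed to 10 μM compound for 30 min. Aliquots were heated for 3 min across 48°C-58°C, pooled, brought to 0.5% NP-40 at 4°C and spun at 21,000xg for 90 min, with the supernatant taken as soluble protein. TMTpro 16plex LC-MS/MS with equalised channel sums quantified that protein. Values are log-two fold changes in thermal stability relative to solvent controls, taken from duplicates.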

[1] = compound: C/C(=N\NC(=O)C1=CC(=CC=C1)S(=O)(=O)N2CCOCC2)/C3=C(C=CC(=C3)Cl)O
Outline: as §1

[2] = compound: C1=CC(=CC=C1C2=NC3=C(N2)C=C(C=C3)C(=O)N)OC4=CC=C(C=C4)Cl
Outline: as §1

[3] = compound: C1=CC2=C(C=CC(=C2)/C=C\3/C(=O)NC(=NCC4=CC=CS4)S3)N=C1
Outline: as §1

[4] = compound: C1=CC2=NC=CN=C2C=C1/C=C/3\C(=O)NC(=O)S3
Outline: as §1

[5] = compound: C1=CC=C(C=C1)C2=NC(=C(N2)C3=CC=NC=C3)C4=CC(=C(C=C4)Cl)O
Outline: as §1

[6] = compound: C1=CC=C2C(=C1)C3=NNC4=CC=CC(=C43)C2=O
Outline: as §1

[7] = compound: C1CCN(C1)C(=O)NC2=CC=CC(=C2)NC3=NC=C(C(=N3)NCCC4=CN=CN4)Br
Outline: as §1

[8] = compound: C1CN(CCC1(CC2=CC=C(C=C2)Cl)N)C3=NC=NC4=C3C=CN4
Outline: as §1

IRAK-1-4 Inhibitor I = compound: C1COCCN1CCN2C3=CC=CC=C3N=C2NC(=O)C4=CC(=CC=C4)[N+](=O)[O-] [IRAK-1-4 Inhibitor I]
Outline: as §1

ibrutinib = compound: C=CC(=O)N1CCC[C@@H](n2nc(-c3ccc(Oc4ccccc4)cc3)c3c(N)ncnc32)C1 [ibrutinib]
Outline: as §1

[9] = compound: CC(=O)c1cnc2ccc(-c3cc(Cl)c(O)c(Cl)c3)nc2c1N[C@H]1CC[C@H](CN(C)C)CC1
Outline: as §1

ralimetinib = compound: CC(C)(C)Cn1c(N)nc2ccc(-c3[nH]c(C(C)(C)C)nc3-c3ccc(F)cc3)nc21 [ralimetinib]
Outline: as §1

[10] = compound: CC(C)(O)CC(=O)NCCn1ccc2ncnc(Nc3ccc(Oc4cccc(C(F)(F)F)c4)c(Cl)c3)c21
Outline: as §1

[11] = compound: CC(C)C1=C2N=C(C=C(N2N=C1)NCC3=CC=CC=C3)NCCCCCCN
Outline: as §1

[12] = compound: CC1=C(C(CC(=O)N1)C2=CC=C(C=C2)C(F)(F)F)C(=O)NC3=C(C=C4C(=C3)C=NN4)F
Outline: as §1

[13] = compound: CC1=C(C2=C(C=C1)C(=O)C3=CC=CC=C3N2CCCN)C
Outline: as §1

[14] = compound: CC1=C(C=C(C=C1)NC(=O)C2=CC(=CC=C2)C(C)(C)C#N)NC3=CC4=C(C=C3)N=CN(C4=O)C
Outline: as §1

[15] = compound: CC1=C(C=C(C=C1)NC(=O)C2=CC(=CC=C2)N(C)C)NC(=O)C3=CC=C(C=C3)O
Outline: as §1

[16] = compound: CC1=CC=C(C=C1)SC2=C3C=C(SC3=CN=C2)C(=O)N
Outline: as §1

Measured: log2 fold change

GMFG (UniProt O60234)
inactive: erlotinib -0.029 | [1] -0.089 | [2] -0.012 | [3] -0.007 | [4] -0.022 | [5] -0.05 | [6] 0.044 | [7] 0.034 | [8] 0.012 | IRAK-1-4 Inhibitor I -0.023 | ibrutinib 0.04 | [9] 0.057 | ralimetinib 0.085 | [10] 0.045 | [11] -0.003 | [12] -0.042 | [13] 0.061 | [14] 0.011 | [15] -0.024 | [16] 0

GP1BB isoform 2 (UniProt P13224)
inactive: erlotinib 0.002 | [1] 0.063 | [2] -0.012 | [3] -0.035 | [4] 0.006 | [5] -0.034 | [6] 0.021 | [7] 0.074 | [8] -0.014 | IRAK-1-4 Inhibitor I -0.024 | ibrutinib 0.039 | [9] 0.003 | ralimetinib 0.017 | [10] 0.009 | [11] 0.03 | [12] 0.036 | [13] 0.053 | [14] -0.087 | [15] 0.08 | [16] 0.031

GMFB (UniProt P60983)
inactive: erlotinib -0.023 | [1] -0.109 | [2] -0.007 | [3] 0.008 | [4] 0.029 | [5] -0.025 | [6] 0.102 | [7] 0.024 | [8] -0.021 | IRAK-1-4 Inhibitor I -0.061 | ibrutinib 0.013 | [9] 0.029 | ralimetinib -0.014 | [10] 0.03 | [11] -0.008 | [12] -0.001 | [13] 0.011 | [14] 0.003 | [15] -0.044 | [16] 0.022

GPS1 (UniProt A8K070)
inactive: erlotinib 0.019 | [1] 0.068 | [2] 0.011 | [3] 0.042 | [4] 0.038 | [5] 0.05 | [6] 0.008 | [7] -0.016 | [8] 0.032 | IRAK-1-4 Inhibitor I 0.01 | ibrutinib 0.008 | [9] 0.017 | ralimetinib 0.037 | [10] -0.005 | [11] -0.035 | [12] -0.033 | [13] -0.01 | [14] -0.002 | [15] -0.065 | [16] -0.015

Fetched one by one from the entries so far, 2 records:
GPS1 (UniProt A8K070)
inactive: erlotinib 0.019 | [1] 0.068 | [2] 0.011 | [3] 0.042 | [4] 0.038 | [5] 0.05 | [6] 0.008 | [7] -0.016 | [8] 0.032 | IRAK-1-4 Inhibitor I 0.01 | ibrutinib 0.008 | [9] 0.017 | ralimetinib 0.037 | [10] -0.005 | [11] -0.035 | [12] -0.033 | [13] -0.01 | [14] -0.002 | [15] -0.065 | [16] -0.015

GMFB (UniProt P60983)
inactive: erlotinib -0.023 | [1] -0.109 | [2] -0.007 | [3] 0.008 | [4] 0.029 | [5] -0.025 | [6] 0.102 | [7] 0.024 | [8] -0.021 | IRAK-1-4 Inhibitor I -0.061 | ibrutinib 0.013 | [9] 0.029 | ralimetinib -0.014 | [10] 0.03 | [11] -0.008 | [12] -0.001 | [13] 0.011 | [14] 0.003 | [15] -0.044 | [16] 0.022

Continuation:

GMEB1 (UniProt Q9Y692)
inactive: erlotinib -0.008 | [1] -0.083 | [2] -0.006 | [3] 0.018 | [4] 0.038 | [5] -0.003 | [6] 0.008 | [7] -0.028 | [8] 0.026 | IRAK-1-4 Inhibitor I -0.007 | ibrutinib -0.041 | [9] 0.12 | ralimetinib -0.045 | [10] -0.088 | [11] -0.028 | [12] 0.009 | [13] -0.034 | [14] -0.01 | [15] 0.021 | [16] 0.046

GID4 (UniProt Q8IVV7)
inactive: erlotinib -0.051 | [1] -0.002 | [2] 0.06 | [3] -0.014 | [4] -0.018 | [5] -0.014 | [6] -0.025 | [7] -0.029 | [8] 0.047 | IRAK-1-4 Inhibitor I 0.017 | ibrutinib 0.006 | [9] 0.02 | ralimetinib 0.006 | [10] -0.004 | [11] 0.001 | [12] 0.033 | [13] -0.062 | [14] -0.013 | [15] 0.027 | [16] 0.015

GNL3L (UniProt Q9NVN8)
inactive: erlotinib 0.001 | [1] 0.009 | [2] 0 | [3] 0.062 | [4] -0.132 | [5] 0.103 | [6] 0.006 | [7] -0.162 | [8] -0.035 | IRAK-1-4 Inhibitor I 0.016 | ibrutinib -0.023 | [9] -0.036 | ralimetinib -0.004 | [10] -0.086 | [11] 0.086 | [12] 0.062 | [13] -0.011 | [14] 0.04 | [15] 0.022 | [16] -0.311

GLA (UniProt P06280)
inactive: erlotinib 0 | [1] -0.015 | [2] -0.026 | [3] 0.009 | [4] -0.017 | [5] 0.033 | [6] -0.1 | [7] -0.044 | [8] 0.036 | IRAK-1-4 Inhibitor I 0.002 | ibrutinib 0.002 | [9] -0.017 | ralimetinib 0.004 | [10] -0.031 | [11] -0.017 | [12] 0.018 | [13] -0.016 | [14] -0.017 | [15] -0.011 | [16] -0.014

GNPAT (UniProt O15228)
inactive: erlotinib 0.026 | [1] -0.032 | [2] -0.08 | [3] 0.013 | [4] 0.033 | [5] -0.022 | [6] -0.055 | [7] -0.062 | [8] -0.047 | IRAK-1-4 Inhibitor I 0.068 | ibrutinib 0.031 | [9] 0.031 | ralimetinib 0.068 | [10] -0.066 | [11] -0.071 | [12] -0.032 | [13] 0.008 | [14] -0.045 | [15] -0.012 | [16] 0.007

GLMN (UniProt Q92990)
inactive: erlotinib -0.016 | [1] -0.011 | [2] 0.039 | [3] 0.01 | [4] 0.029 | [5] 0.007 | [6] -0.025 | [7] -0.002 | [8] -0.013 | IRAK-1-4 Inhibitor I 0 | ibrutinib -0.037 | [9] 0.021 | ralimetinib 0.015 | [10] -0.008 | [11] -0.028 | [12] -0.007 | [13] -0.035 | [14] -0.013 | [15] 0.015 | [16] -0.015

GNPTG (UniProt Q9UJJ9)
inactive: erlotinib -0.056 | [1] 0.188 | [2] 0.158 | [3] 0.047 | [4] -0.034 | [5] 0.014 | [6] 0.007 | [7] 0.015 | [8] 0.106 | IRAK-1-4 Inhibitor I -0.084 | ibrutinib 0.172 | [9] -0.016 | ralimetinib 0.064 | [10] 0.061 | [11] -0.151 | [12] 0.103 | [13] 0.039 | [14] -0.114 | [15] 0.104 | [16] -0.016

GMPPB isoform 2 (UniProt Q9Y5P6)
inactive: erlotinib 0.052 | [1] -0.189 | [2] -0.024 | [3] -0.063 | [4] 0.022 | [5] -0.012 | [6] 0.001 | [7] 0.021 | [8] 0.047 | IRAK-1-4 Inhibitor I 0.028 | ibrutinib -0.018 | [9] 0.002 | ralimetinib 0.022 | [10] -0.031 | [11] 0.005 | [12] 0.009 | [13] -0.018 | [14] 0.018 | [15] 0.011 | [16] 0.003

GOLGA6B (UniProt A6NDN3)
inactive: erlotinib 0.092 | [1] -0.061 | [2] -0.082 | [3] 0.033 | [4] 0.08 | [5] -0.013 | [6] -0.054 | [7] 0.011 | [8] 0.032 | IRAK-1-4 Inhibitor I -0.022 | ibrutinib -0.034 | [9] 0.003 | ralimetinib -0.047 | [10] -0.187 | [11] -0.057 | [12] -0.127 | [13] -0.114 | [14] 0.045 | [15] 0.066 | [16] 0

GPRIN1 (UniProt Q7Z2K8)
inactive: erlotinib 0 | [1] -0.006 | [2] 0.019 | [3] -0.032 | [4] -0.037 | [5] -0.024 | [6] 0 | [7] 0.016 | [8] -0.009 | IRAK-1-4 Inhibitor I 0.024 | ibrutinib 0.041 | [9] -0.031 | ralimetinib 0.009 | [10] -0.063 | [11] 0 | [12] 0.007 | [13] -0.023 | [14] 0.018 | [15] 0.008 | [16] -0.026

GOLPH3L (UniProt Q9H4A5)
inactive: erlotinib 0.028 | [1] -0.003 | [2] 0.012 | [3] 0.07 | [4] -0.03 | [5] 0.092 | [6] -0.085 | [7] 0.005 | [8] 0.03 | IRAK-1-4 Inhibitor I 0.023 | ibrutinib 0.058 | [9] 0.005 | ralimetinib -0.058 | [10] 0.071 | [11] 0.009 | [12] -0.042 | [13] -0.01 | [14] 0.114 | [15] -0.029 | [16] 0.006
